Test results: the supplement of paper PMC10849652
The other results are listed elsewhere or left out.

Amino acid sequences for entries named in this document (tags omitted). A change or cut given only in a name is not applied to a line headed by its entry.
UniProt Q9P107: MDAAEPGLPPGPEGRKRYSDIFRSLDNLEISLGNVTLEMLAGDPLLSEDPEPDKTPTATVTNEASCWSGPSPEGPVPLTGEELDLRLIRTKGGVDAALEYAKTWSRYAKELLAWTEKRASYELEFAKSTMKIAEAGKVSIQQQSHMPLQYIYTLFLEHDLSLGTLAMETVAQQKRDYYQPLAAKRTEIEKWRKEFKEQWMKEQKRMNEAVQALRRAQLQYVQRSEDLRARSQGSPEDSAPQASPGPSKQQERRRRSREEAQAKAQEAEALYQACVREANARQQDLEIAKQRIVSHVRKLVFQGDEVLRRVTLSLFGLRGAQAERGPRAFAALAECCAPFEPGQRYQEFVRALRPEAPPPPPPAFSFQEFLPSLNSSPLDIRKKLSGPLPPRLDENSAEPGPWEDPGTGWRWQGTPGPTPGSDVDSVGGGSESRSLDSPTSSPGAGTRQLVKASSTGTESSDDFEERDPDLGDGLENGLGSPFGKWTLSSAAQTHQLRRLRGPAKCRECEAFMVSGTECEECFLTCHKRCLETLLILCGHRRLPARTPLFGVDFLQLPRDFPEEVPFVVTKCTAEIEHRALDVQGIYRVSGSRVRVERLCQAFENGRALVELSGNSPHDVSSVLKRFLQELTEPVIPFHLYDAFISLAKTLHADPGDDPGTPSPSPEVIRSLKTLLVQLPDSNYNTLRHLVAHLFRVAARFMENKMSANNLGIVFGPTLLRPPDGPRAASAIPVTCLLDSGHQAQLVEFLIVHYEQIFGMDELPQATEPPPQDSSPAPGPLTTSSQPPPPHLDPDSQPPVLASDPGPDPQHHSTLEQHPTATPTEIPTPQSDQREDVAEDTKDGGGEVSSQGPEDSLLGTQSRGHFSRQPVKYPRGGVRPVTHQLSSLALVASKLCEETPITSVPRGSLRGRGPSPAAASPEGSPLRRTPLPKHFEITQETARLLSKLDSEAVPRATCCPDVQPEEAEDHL
UniProt Q14687: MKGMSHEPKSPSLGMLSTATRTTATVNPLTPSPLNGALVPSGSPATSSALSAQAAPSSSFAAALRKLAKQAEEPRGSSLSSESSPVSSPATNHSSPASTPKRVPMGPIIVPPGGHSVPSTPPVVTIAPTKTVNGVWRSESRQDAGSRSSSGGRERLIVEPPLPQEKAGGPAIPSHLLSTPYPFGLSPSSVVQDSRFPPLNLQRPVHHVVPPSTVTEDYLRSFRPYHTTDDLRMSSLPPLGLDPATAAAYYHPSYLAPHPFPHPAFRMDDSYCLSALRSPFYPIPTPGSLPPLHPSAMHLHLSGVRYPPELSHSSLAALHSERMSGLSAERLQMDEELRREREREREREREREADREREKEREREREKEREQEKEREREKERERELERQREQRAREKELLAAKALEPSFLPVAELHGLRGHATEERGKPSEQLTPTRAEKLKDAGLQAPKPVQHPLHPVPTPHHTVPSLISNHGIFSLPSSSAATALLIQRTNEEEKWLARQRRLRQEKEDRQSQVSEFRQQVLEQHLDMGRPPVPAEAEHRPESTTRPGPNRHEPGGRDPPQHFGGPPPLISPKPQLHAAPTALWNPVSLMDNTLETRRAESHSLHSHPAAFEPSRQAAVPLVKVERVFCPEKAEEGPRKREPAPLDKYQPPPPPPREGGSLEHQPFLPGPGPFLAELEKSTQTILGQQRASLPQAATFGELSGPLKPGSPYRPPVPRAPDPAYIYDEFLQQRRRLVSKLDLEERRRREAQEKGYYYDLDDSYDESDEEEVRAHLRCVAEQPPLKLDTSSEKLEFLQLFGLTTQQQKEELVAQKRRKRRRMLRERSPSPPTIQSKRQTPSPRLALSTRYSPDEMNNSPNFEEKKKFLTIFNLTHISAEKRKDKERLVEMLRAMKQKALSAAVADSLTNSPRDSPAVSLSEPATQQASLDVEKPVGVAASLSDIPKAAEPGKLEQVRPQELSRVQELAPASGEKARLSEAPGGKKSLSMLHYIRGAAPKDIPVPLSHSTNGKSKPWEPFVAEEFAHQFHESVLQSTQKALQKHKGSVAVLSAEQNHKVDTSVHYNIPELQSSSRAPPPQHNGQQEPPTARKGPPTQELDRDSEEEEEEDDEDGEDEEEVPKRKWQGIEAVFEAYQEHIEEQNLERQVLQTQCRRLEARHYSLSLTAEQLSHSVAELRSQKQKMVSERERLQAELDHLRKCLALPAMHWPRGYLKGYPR
UniProt Q14161: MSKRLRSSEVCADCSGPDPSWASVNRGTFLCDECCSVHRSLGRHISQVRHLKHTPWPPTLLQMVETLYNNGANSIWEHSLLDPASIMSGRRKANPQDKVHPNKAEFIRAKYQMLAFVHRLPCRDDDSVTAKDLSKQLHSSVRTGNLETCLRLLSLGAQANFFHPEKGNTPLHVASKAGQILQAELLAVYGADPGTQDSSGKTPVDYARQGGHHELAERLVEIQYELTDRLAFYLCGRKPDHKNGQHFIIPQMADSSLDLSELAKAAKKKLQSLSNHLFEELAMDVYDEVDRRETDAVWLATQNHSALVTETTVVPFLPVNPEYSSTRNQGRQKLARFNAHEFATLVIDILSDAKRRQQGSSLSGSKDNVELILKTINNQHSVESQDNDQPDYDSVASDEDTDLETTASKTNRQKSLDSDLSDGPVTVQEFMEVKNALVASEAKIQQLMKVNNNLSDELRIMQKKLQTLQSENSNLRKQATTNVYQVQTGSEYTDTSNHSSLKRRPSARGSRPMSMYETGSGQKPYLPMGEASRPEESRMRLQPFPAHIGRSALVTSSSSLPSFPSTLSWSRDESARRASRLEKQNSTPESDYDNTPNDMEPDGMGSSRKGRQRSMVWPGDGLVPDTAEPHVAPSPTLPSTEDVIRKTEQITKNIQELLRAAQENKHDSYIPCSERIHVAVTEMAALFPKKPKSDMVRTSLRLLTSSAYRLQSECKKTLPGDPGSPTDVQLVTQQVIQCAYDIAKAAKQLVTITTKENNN
UniProt Q8NBJ4: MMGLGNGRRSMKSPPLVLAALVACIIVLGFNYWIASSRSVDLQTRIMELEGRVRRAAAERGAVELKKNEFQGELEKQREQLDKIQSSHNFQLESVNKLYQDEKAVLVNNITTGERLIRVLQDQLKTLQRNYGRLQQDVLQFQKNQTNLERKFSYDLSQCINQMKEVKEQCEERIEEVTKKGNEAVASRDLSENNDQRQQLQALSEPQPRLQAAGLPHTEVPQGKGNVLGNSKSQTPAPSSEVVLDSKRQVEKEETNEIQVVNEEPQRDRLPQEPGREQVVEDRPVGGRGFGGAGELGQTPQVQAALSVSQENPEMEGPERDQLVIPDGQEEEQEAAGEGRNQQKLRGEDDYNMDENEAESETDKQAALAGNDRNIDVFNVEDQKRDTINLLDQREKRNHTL
UniProt Q5T7V8: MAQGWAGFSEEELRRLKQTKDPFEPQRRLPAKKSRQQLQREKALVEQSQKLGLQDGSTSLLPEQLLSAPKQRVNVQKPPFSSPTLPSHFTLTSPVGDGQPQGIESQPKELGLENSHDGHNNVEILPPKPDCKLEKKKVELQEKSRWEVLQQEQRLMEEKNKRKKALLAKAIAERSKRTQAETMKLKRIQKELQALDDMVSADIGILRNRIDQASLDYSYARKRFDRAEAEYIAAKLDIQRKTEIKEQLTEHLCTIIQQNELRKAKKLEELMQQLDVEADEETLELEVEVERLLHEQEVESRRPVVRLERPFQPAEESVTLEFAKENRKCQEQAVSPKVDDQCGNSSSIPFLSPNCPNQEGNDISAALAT
UniProt Q86V85: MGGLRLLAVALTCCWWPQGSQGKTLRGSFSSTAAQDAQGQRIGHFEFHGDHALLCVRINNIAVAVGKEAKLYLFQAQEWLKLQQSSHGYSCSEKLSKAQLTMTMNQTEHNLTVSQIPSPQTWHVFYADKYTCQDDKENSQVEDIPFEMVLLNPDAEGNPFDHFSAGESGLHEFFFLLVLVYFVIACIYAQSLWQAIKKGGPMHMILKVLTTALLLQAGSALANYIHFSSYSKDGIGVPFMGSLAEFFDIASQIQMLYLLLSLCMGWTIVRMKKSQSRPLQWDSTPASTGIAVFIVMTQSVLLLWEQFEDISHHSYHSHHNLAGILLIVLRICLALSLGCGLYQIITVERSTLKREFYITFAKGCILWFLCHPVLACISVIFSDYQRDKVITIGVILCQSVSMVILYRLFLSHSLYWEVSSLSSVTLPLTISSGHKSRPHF
UniProt I6L899: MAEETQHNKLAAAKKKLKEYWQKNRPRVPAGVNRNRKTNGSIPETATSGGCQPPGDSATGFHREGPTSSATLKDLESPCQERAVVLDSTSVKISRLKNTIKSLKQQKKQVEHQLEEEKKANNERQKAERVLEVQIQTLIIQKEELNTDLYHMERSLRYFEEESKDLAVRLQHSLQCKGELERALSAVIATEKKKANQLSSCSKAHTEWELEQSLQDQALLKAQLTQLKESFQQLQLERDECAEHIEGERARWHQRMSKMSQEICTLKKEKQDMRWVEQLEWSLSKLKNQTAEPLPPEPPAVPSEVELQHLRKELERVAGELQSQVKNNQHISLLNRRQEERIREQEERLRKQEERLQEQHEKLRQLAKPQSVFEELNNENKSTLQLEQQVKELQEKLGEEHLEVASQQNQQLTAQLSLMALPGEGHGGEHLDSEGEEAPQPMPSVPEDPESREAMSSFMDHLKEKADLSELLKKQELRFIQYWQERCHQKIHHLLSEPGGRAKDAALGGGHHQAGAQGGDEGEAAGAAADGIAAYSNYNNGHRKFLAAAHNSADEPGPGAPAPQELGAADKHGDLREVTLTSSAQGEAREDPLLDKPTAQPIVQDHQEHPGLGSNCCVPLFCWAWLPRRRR
UniProt Q9NPR9: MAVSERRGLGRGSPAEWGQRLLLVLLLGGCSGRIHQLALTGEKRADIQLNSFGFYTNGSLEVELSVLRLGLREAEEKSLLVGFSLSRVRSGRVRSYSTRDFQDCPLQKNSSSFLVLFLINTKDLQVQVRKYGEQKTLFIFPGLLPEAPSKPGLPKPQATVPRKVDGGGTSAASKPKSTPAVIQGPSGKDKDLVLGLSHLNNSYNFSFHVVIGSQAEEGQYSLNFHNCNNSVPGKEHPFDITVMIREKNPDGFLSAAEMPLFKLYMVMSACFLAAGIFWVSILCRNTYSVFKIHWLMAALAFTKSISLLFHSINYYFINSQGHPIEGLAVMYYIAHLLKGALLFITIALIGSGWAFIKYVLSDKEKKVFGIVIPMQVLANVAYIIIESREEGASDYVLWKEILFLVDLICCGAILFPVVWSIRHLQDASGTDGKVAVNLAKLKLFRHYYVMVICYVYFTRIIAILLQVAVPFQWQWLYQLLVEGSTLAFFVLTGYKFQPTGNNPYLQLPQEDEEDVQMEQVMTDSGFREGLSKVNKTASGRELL
UniProt Q53EU6: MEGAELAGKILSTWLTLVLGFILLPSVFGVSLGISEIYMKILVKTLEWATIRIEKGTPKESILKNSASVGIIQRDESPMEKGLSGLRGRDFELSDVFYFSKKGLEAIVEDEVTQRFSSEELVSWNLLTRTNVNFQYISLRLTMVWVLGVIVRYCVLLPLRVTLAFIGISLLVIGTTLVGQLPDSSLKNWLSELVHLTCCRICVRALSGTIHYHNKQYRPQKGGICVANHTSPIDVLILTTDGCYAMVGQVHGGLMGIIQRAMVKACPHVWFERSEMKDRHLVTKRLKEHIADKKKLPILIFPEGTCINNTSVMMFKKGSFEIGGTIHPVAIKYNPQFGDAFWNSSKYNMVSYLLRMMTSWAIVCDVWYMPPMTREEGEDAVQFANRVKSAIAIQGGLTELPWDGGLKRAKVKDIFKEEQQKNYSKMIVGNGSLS
UniProt Q9H4G4: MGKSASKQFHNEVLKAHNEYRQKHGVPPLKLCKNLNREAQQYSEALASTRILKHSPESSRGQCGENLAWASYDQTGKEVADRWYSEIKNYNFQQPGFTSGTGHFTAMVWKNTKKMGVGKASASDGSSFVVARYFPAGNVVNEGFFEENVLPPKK
UniProt Q68CQ7: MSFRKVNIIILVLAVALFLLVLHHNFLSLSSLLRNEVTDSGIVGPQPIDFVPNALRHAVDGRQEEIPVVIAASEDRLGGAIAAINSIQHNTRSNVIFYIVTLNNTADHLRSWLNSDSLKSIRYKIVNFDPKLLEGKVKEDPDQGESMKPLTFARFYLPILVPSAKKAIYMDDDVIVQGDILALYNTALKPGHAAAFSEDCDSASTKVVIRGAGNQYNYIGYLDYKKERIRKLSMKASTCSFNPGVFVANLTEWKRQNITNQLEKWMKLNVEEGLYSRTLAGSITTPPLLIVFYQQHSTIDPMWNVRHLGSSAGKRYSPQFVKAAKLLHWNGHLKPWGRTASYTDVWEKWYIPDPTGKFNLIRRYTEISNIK
UniProt Q9UBI6: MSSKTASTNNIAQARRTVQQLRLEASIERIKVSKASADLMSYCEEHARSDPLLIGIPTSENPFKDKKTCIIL
UniProt Q9Y4H4: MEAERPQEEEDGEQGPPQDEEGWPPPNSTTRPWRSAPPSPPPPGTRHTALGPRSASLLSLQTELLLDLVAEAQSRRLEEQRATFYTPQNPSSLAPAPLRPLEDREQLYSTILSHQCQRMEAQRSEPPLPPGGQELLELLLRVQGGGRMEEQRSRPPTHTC

Each target was assayed with Cc1ccc(NC(=O)c2ccc(CN3CC[C@H](N(C)C)C3)c(C(F)(F)F)c2)cc1Nc1nccc(-c2cncnc2)n1 [bafetinib] (assay: log2 fold change, soluble protein after heating vs DMSO (PISA); higher = thermal stabilisation; K562 cells, 10 uM, 30 min; active = over 0.2 and 3.5 SD of the protein, either way, in both replicates (recomputed)).
In short: (§1)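 Values are thermal stability changes relative to control samples and are taken from duplicates. They are stated as log2 fold changes. Before quantification by TMTpro 16plex LC-MS/MS with equalised channel sums, K562 cells at 2×10^6 cells/mL were treated with 10 μM compound for 30 min, heated in aliquots for 3 min across 48°C-58°C, pooled, extracted in PBS with 0.5% NP-40 at 4°C, and centrifuged at 21,000xg for 90 min to give the soluble supernatant.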

log2 fold change, inactive:
GLCE (UniProt O94923) -0.059, GMIP (UniProt Q9P107) 0.082, GSE1 (UniProt Q14687) 0.305, GIT2 (UniProt Q14161) -0.19, GOLGA7B (UniProt Q2TAP0) -0.044, GOLM1 (UniProt Q8NBJ4) -0.009, GOSR1 (UniProt E9PCW1) -0.19, GORAB (UniProt Q5T7V8) 0.127, GLRX5 (UniProt Q86SX6) -0.152, GPR180 (UniProt Q86V85) 0.561, GP6 isoform 3 (UniProt Q9HCN6) 0.256, GOLGA8R (UniProt I6L899) -0.095, GPR108 (UniProt Q9NPR9) -0.018, GNL2 (UniProt Q13823) 0.275, GPAT3 (UniProt Q53EU6) -0.042, GON4L (UniProt Q3T8J9) -0.063, GPX3 (UniProt P22352) -0.008, GPS2 (UniProt Q13227) -0.157, GLIPR2 (UniProt Q9H4G4) -0.101

These targets were tested with Cc1cccc(CC(=O)N2CCc3c2ccc(-c2cn(C)c4ncnc(N)c24)c3F)n1 in the same assay as above.
In short: as §1

log2 fold change, inactive:
GIGYF1 (UniProt O75420) 0.132, GOLGA1 (UniProt Q92805) -0.076, GPC4 (UniProt O75487) -0.039, GNL3L (UniProt Q9NVN8) -0.009, GPCPD1 (UniProt Q9NPB8) 0.272, GPR180 (UniProt Q86V85) -0.104, GPT2 (UniProt Q8TD30) 0, GLT8D1 (UniProt Q68CQ7) 0.247, GOLGA8R (UniProt I6L899) -0.021, GOLPH3L (UniProt Q9H4A5) -0.122, GNL2 (UniProt Q13823) 0.079, GNG12 (UniProt Q9UBI6) -0.257, GPAM (UniProt Q9HCL2) -0.137, GLIPR2 (UniProt Q9H4G4) -0.024

Each target was assayed with Cc1cn(-c2cc(NC(=O)c3ccc(C)c(Nc4nccc(-c5cccnc5)n4)c3)cc(C(F)(F)F)c2)cn1 [nilotinib] in the same assay as above.
In short: as §1

log2 fold change, inactive:
GLCE (UniProt O94923) -0.012, GMIP (UniProt Q9P107) 0.013, GSE1 (UniProt Q14687) 0.034, GIT2 (UniProt Q14161) -0.247, GOLGA7B (UniProt Q2TAP0) -0.012, GPSM3 (UniProt Q9Y4H4) 0.131, GOLM1 (UniProt Q8NBJ4) 0.117, GORAB (UniProt Q5T7V8) -0.313, GLRX5 (UniProt Q86SX6) 0.026, GLMP (UniProt Q8WWB7) 0.077, GLT8D1 (UniProt Q68CQ7) 0.14, GPR108 (UniProt Q9NPR9) 0.088, GPAT3 (UniProt Q53EU6) 0.036, GON4L (UniProt Q3T8J9) 0.227, GPAM (UniProt Q9HCL2) 0.154, GPS2 (UniProt Q13227) 0

What follows are targets tested with Cc1nc(Nc2n[nH]c3c2CN(C(=O)N[C@H](CN(C)C)c2ccccc2)C3(C)C)c2sccc2n1 in the same assay as above.
In short: as §1

log2 fold change, inactive:
GLCE (UniProt O94923) -0.077, GMIP (UniProt Q9P107) 0.008, GSE1 (UniProt Q14687) 0.004, GIT2 (UniProt Q14161) -0.118, GOLGA7B (UniProt Q2TAP0) -0.021, GPSM3 (UniProt Q9Y4H4) -0.054, GOLM1 (UniProt Q8NBJ4) 0.128, GORAB (UniProt Q5T7V8) -0.097, GLRX5 (UniProt Q86SX6) 0.002, GLMP (UniProt Q8WWB7) 0.023, GLT8D1 (UniProt Q68CQ7) -0.005, GPR108 (UniProt Q9NPR9) -0.025, GPAT3 (UniProt Q53EU6) 0.153, GON4L (UniProt Q3T8J9) 0.061, GPAM (UniProt Q9HCL2) 0.157, GPS2 (UniProt Q13227) -0.045

The targets below were run with Cc1nc(Nc2ncc(C(=O)Nc3c(C)cccc3Cl)s2)cc(N2CCN(CCO)CC2)n1 [dasatinib] in the same assay as above.
In short: as §1

log2 fold change, inactive:
GPATCH1 (UniProt Q9BRR8) 0.029, GMIP (UniProt Q9P107) -0.394, GOLGA1 (UniProt Q92805) -0.032, GSE1 (UniProt Q14687) -0.453, GIT2 (UniProt Q14161) -0.151, GOLGA7B (UniProt Q2TAP0) 0.067, GPSM3 (UniProt Q9Y4H4) -0.206, GSDME (UniProt O60443) 0.049, GLE1 (UniProt Q53GS7) 0.025, GOSR1 (UniProt E9PCW1) -0.017, GORAB (UniProt Q5T7V8) 0.168, GLRX5 (UniProt Q86SX6) -0.036, GPCPD1 (UniProt Q9NPB8) -0.222, GPR180 (UniProt Q86V85) -0.237, GLMP (UniProt Q8WWB7) 0.062, GRK6 isoform 2 (UniProt P43250) -0.107, GPT2 (UniProt Q8TD30) -0.268, GLT8D1 (UniProt Q68CQ7) -0.077, GOLGA8R (UniProt I6L899) -0.074, GPR108 (UniProt Q9NPR9) 0.045, GORASP1 (UniProt Q9BQQ3) -0.06, GPAT3 (UniProt Q53EU6) -0.004, GON4L (UniProt Q3T8J9) -0.01, GIT1 isoform 3 (UniProt Q9Y2X7) -0.113, GPX3 (UniProt P22352) 0.039, GLIPR2 (UniProt Q9H4G4) -0.059
